# Reference: the supplement of paper PMC8426693
# The other results are listed elsewhere or left out. For some assays here: Single values are uncertain, as repeats are few or missing.
# How the values were obtained:
# Details in all cases: RNA concentration 10 µM; fragment concentration 200 µM; 293 K
# [1] = test system: SARS-CoV-2 5_SL7 RNA; assay: T2 signal reduction relative to ligand without RNA (fraction); higher = stronger binding
# [2] = test system: SARS-CoV-2 frameshift pseudoknot (PK) RNA; assay: as above
# [3] = test system: SARS-CoV-2 3'-UTR RNA; assay: NMR binding call after quantification (hit when 2 of 3 NMR criteria are met) (binary (1 = binding, 0 = not binding)); higher = binding
# [4] = test system: SARS-CoV-2 3_SL1 RNA; assay: as above
# [5] = test system: SARS-CoV-2 3_SL1+2 RNA; assay: as above
# [6] = test system: SARS-CoV-2 3_SL2 RNA; assay: as above
# [7] = test system: SARS-CoV-2 3_SL3base RNA; assay: as above
# [8] = test system: SARS-CoV-2 3_s2m RNA; assay: as above
# [9] = test system: SARS-CoV-2 5_SL8 RNA; assay: T2 signal reduction relative to ligand without RNA (fraction); higher = stronger binding
# [10] = test system: SARS-CoV-2 attenuator hairpin (att HP) RNA; assay: as above
Compound,T2 signal reduction [1],T2 signal reduction [2],NMR binding call [3],NMR binding call [4],NMR binding call [5],NMR binding call [6],NMR binding call [7],NMR binding call [8],T2 signal reduction [9],T2 signal reduction [10]
CNC(=O)Nc1nc2ccc(OC)cc2s1,0.49,0.59,0,0,0,0,0,1,,
c1ccc(NCC2CCNC2)nc1 (stereo not given),0.27,0.8,0,0,0,,,,,
CC(=O)N1CCCC2(CCCCCC2)C1,,,0,0,0,0,0,0,,
CCN(C)C(=O)c1cccc(N)c1,,,0,0,0,0,0,0,0.38,
OCc1cn(-c2ccc(Cl)c(Cl)c2)nn1,0.48,0.7,1,1,1,1,1,1,0.14,0.08
CCNC1CCN(c2ccncc2)CC1,0.59,0.54,1,1,1,1,1,1,,
Cc1ccc(C)c(OC(=O)c2ccncc2)c1,,,0,0,0,0,0,0,,
COCC(=O)NCc1ccccc1,,,0,0,0,0,0,0,,
Cc1ccccc1OCC(=O)Nc1ccccc1,,0.26,1,0,0,0,0,0,,
CN1CCN(c2ccc(C#N)cc2)CC1,0.32,,1,0,0,0,,,,
COC(=O)Nc1ccc(Cc2ccncc2)cc1,,,0,0,0,0,0,0,,
Cc1nccc(N2CCC(N)CC2)n1,,0.38,1,0,1,1,1,1,,
O=C(COc1ccccc1)Nc1cccc(F)c1,,,0,0,0,0,0,0,,
CN(C)c1ccc(C(=O)Nc2ccncc2)cc1,0.87,,0,1,,1,0,,1,
CC(N)c1ccc(-c2cncnc2)cc1 (stereo not given),,,1,0,0,0,0,,,
CC(=O)Nc1ccc(Nc2ccccc2)cc1,,,0,0,0,0,0,0,,
c1ccc(-c2ccc(-n3cnnn3)cc2)cc1,0.32,0.6,0,0,0,0,0,0,,
O=C(Nc1ccc2ncccc2c1)c1ccccc1,,,1,0,,0,1,0,0.33,
CC(=O)N1CCN(C(N)=O)CC1,,,0,0,0,0,0,0,,
CC(C)c1ccc(C(=O)Nc2ccccn2)cc1,,,0,0,0,0,0,,,

Compound,T2 signal reduction [1],T2 signal reduction [2],NMR binding call [3],NMR binding call [4],NMR binding call [5],NMR binding call [6],NMR binding call [7],NMR binding call [8],T2 signal reduction [9],T2 signal reduction [10]
C1CN(CC2CCOCC2)CCN1,,,0,0,0,0,0,0,,
COc1cc(C(=O)O)cc(OC)c1OC,,,0,0,0,0,0,0,,
CCC(C)NC(=O)c1ccccc1N (stereo not given),,,0,0,0,0,0,0,,
COc1ccc2[nH]cc(CN(C)C)c2c1,0.44,,0,0,0,,,,,
NC(=O)c1cc(N2CCCC2)ccn1,0.43,,1,0,1,0,1,1,,
CC(C)c1ccc(CN2CCC(O)CC2)cc1,,,0,0,0,0,0,0,,
CCOc1ccc(C(=O)Nc2ccccc2)cc1,,,0,0,0,0,0,,,
CC(N)C(=O)Nc1cc(C(F)(F)F)n[nH]1.Cl (stereo not given),,,0,0,0,0,0,0,,
Cc1ccc(-c2noc(CNC(C)C)n2)cc1,0.43,,1,0,0,0,1,0,,
c1cc(-c2ccc3c(c2)OCO3)n[nH]1,,,1,0,0,0,1,0,0.37,
c1cc(-c2noc(C3CCCCC3)n2)ccn1,,,0,0,0,0,0,0,,
COC(=O)c1ccncc1,,,0,0,0,0,0,0,,
Cl.NCc1cc(-c2ccccc2)no1,0.41,,1,0,,,,1,,
NC(=O)C(O)C1CCOCC1 (stereo not given),,,0,0,0,0,0,0,,
CC(=O)c1ccc(NC(=O)CN2CCCC2)cc1,0.4,0.39,1,0,1,1,1,1,,
CNC(=O)c1ccccc1NC(=O)c1ccco1,,,1,0,,,1,0,0.39,
CCNCc1cccc2[nH]ccc12,,,0,0,0,0,0,0,,
Cc1occc1C(=O)Nc1ccncc1,,0.31,1,0,1,0,1,0,0.32,
Nc1nccc(-c2ccc(Cl)cc2)n1,,0.8,1,0,0,1,1,0,,
CN(C)S(=O)(=O)c1cn[nH]c1,,,0,0,0,0,0,0,,

Compound,T2 signal reduction [1],T2 signal reduction [2],NMR binding call [3],NMR binding call [4],NMR binding call [5],NMR binding call [6],NMR binding call [7],NMR binding call [8],T2 signal reduction [9],T2 signal reduction [10]
Fc1cccnc1NCC1CCOCC1,,,0,0,0,0,0,0,,
Cc1c(Cl)cccc1NC(=O)C1CCCO1 (stereo not given),,,0,0,0,0,0,0,,
COc1ccc(C(N)C(=O)O)cc1 (stereo not given),,,0,0,0,0,0,0,,
CC(=O)NC(C(=O)O)C1CCOCC1 (stereo not given),,,0,0,0,0,0,0,,
CC(=O)Nc1ccccc1O,,,0,0,0,0,0,0,,
CNC(=O)c1cccc(C(=O)O)n1,,,0,0,0,0,0,0,,
COc1ccc(C)cc1NC(=O)Nn1cnnc1,,,0,0,0,0,0,0,,
CC(=O)Nc1ccc(C)c2c1CCCN2,,,0,0,0,0,0,0,,
COC(=O)C1CCN(CC(N)=O)CC1,,,0,0,0,0,0,0,,
CNC1CCCCC1S(C)(=O)=O (stereo not given),,,0,0,0,0,0,0,,
CCC(=O)NC1CCNC1 (stereo not given),,,0,0,0,0,0,0,,
CNC(=O)c1c(-c2ccc(F)cc2)noc1C,,,0,0,0,0,0,0,,
CCOc1cccc(C(=O)Nc2nnn(C)n2)c1,,,0,0,0,0,0,0,,
CC(=O)N1CCC(C#N)CC1,,,0,0,0,0,0,0,,
Cc1noc(C(N)C(C)C)n1 (stereo not given),,,0,0,0,0,0,0,,
CC(O)CNCc1ccc2c(c1)OCO2 (stereo not given),,,0,0,0,0,0,0,,
CN(C(=O)C1CCNC1)c1ccccc1.Cl (stereo not given),,,0,0,0,0,0,0,,
NC(=O)c1ccc(NC(=O)C2CCCC2)cc1,,,0,0,0,0,0,0,,
CCN(CC)C(=O)c1cc(C)no1,,,0,0,0,0,0,0,,

# Two of these compounds, reformatted.
Compound | T2 signal reduction [1] | T2 signal reduction [2] | NMR binding call [3] | NMR binding call [4] | NMR binding call [5] | NMR binding call [6] | NMR binding call [7] | NMR binding call [8] | T2 signal reduction [9] | T2 signal reduction [10]
CN(C(=O)C1CCNC1)c1ccccc1.Cl (stereo not given) |  |  | 0 | 0 | 0 | 0 | 0 | 0 |  | 
NC(=O)c1ccc(NC(=O)C2CCCC2)cc1 |  |  | 0 | 0 | 0 | 0 | 0 | 0 |  | 
